From PubChem BioAssay AID1347426 (Functional Genomics Laboratory (NCATS/FGL), 2020)
The whole screen tested about 31,000 sequences, of which about 1,400 (4.5%) were called active.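 How the source made its calls: active means median seed-adjusted z-score above 1 or below -1; inactive means the rest.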 The list shows a part of the results.

Test: Novel Modifiers of Survival Motor Neuron (SMN) Protein: Gene Identification via Genome-wide siRNA Screen;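 further: luminescence tracks full-length SMN protein made from the SMN2 reporter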
Conditions: HEK293T SMN2-luciferase reporter, siRNA knockdown, 72 h; actives lie on both sides
In short: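 HEK293T cells stably carrying an SMN2 promoter/splicing cassette–luciferase reporter were reverse-transfected with 1 pmol siRNA per well (druggable-genome library, 3 siRNAs per gene) and grown 72 h at 37 °C. Luminescence, normalized to negative-control siRNA and log10-transformed, was scored as MAD.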

| Sequence | median seed-adjusted z-score |
| --- | --- |
| GAUCAGCUAUAUCAUAUUATT against CDKL2 | inactive: -0.293 |
| GCCUCCCACUGGUUAUACUTT against EWSR1 | inactive: -0.654 |
| GGAUGUCACUGAUCUCAAUTT against MYOCD | inactive: -0.121 |
| CCUUUGAGCUUAAAGAGCATT against ZFYVE19 | inactive: 0.0704 |
| GGAUGUGAAGUUCAAGCUUTT against DHX34 | inactive: -0.269 |
| CAUCCGACAUUGAAGUUGATT against B2M | inactive: -0.367 |
| GGCACGAGUCAUUCCCAUATT against PECR | inactive: -0.347 |
| ACUGAAAACUGGUGAGACATT against PPAP2B | inactive: 0 |
| CAGAUUGUCUGAUUCGAUUTT against TRIP11 | inactive: 0.333 |
| CGGGAAUGGUUAUGAAUCUTT against PTS | inactive: -0.103 |
| GAAGUGAACUCCAUGCUCATT against INPP5J | inactive: 0.223 |
| GAGCGAUCCUUGUUAUGAATT against GRID2 | inactive: 0.676 |
| GGCAGAUAUGGUGAACGAATT against UGCGL1 | inactive: -0.391 |
| GGAAGUUCCUCUCCAAUGATT against CD22 | inactive: -0.448 |
| CGGUGCAACUUCUUCCUCUTT against APEX2 | inactive: -0.347 |
| GGAGUGUGACCGUCACUAUTT against KAL1 | inactive: 0.0824 |
| CCAUGACUACUGUUGGGUATT against KCNB1 | inactive: 0.0206 |
| CUAUGAAGGUACUAAUGAATT against CD2AP | inactive: 0.113 |
| GCUGUCUUAUGGUCUACAATT against ADAT2 | inactive: 0.604 |
| CCUUUGAACUCCUUACUUUTT against TBX22 | inactive: 0.0269 |
| GAGUCACUCUUUGUUCGAATT against MAPKAP1 | inactive: -0.0499 |
| GAAAGACGAUUAAGACGAUTT against SCN1A | inactive: 0.031 |

| Sequence | median seed-adjusted z-score |
| --- | --- |
| GGUGAUGCCCAACUACCCATT against ETV3 | inactive: -0.039 |
| GGACGAUAAACUUCGAAAUTT against ARAP2 | inactive: 0.388 |
| GACUGCACCUUCUUCAAUATT against CIB2 | inactive: 0.569 |
| CCUCCAAUCCAAGACCAAATT against SYT15 | inactive: 0.0164 |
| CACCAGAUCUACCAGUUCATT against ADM | inactive: 0.65 |
| GCAUUGUCGUUGCAAUCGATT against CLCA1 | inactive: 0.015 |
| GUGUUACAAAGGUAGAUUATT against GALNT1 | inactive: -0.164 |
| GGUCAGAGACCAUCCAGAATT against GFRA4 | active: -1.59 |
| GCAUUACACUGUUUAUCCATT against UNG | inactive: 0.259 |
| CCAUCAAGGCAUUCAAAGATT against EGR3 | inactive: -0.232 |
| CCACCCUUCCGAGACAUGATT against TOP3B | active: -1.11 |
| GAAUCUGAGCGAGACAAAATT against MAPK9 | inactive: 0.211 |
| AGAUCUUAGUAAUUACAGUTT against IL8RB | inactive: -0.387 |
| CCUUAUAAGUGUCCGUUUUTT against ZNF236 | inactive: 0.683 |
| GGAGAGAGCGCGAAACUCATT against SLC17A7 | inactive: -0.0794 |
| CCUCAUCUGUGGUUACUGUTT against ZNF212 | inactive: 0.863 |
| GAGAAGAAGUAUUACUUAUTT against PPP1R8 | inactive: -0.029 |
| GCUGAGCUGAGAAAUGCUATT against RUNX1 | inactive: -0.0264 |
| GGGUUAAUGUUGAGGAAUUTT against NME7 | inactive: -0.331 |
| CGGAUGCACCAGCACAACATT against NMNAT3 | inactive: 0.0197 |
| CGGACUUCGUCAACAAGUUTT against TSSK6 | inactive: -0.408 |
| CCGUUUACCUGAUAAACCUTT against RXFP1 | inactive: 0.314 |

| Sequence | median seed-adjusted z-score |
| --- | --- |
| AGAUCAAGCCCAAGAUGUUTT against HPN | inactive: -0.0237 |
| GUUCAGACCUUCCUACGAATT against ITGA10 | inactive: 0.378 |
| GAUCCAAAGUAACUAAACATT against HMGN3 | inactive: -0.182 |
| GAACCUGGAUUCUCCCUCATT against PKMYT1 | inactive: 0.65 |
| GACAGAUUGUUAUAUACGATT against DYNC1I2 | inactive: -0.167 |
| UGUGGGCUACCUACACGUATT against APLNR | inactive: 0.794 |
| GGAGACCCAAUGACAUUUATT against POP7 | inactive: 0.114 |
| AGAUGAUGGUGAACAACUATT against CA5A | inactive: -0.0668 |
| GGAUGGAAGAUAGCUUGAATT against CPEB4 | inactive: -0.53 |
| CAACCCUACCAAUAUCAGATT against GMPS | inactive: -0.485 |
| GUAUACUCACCAUCGCUAUTT against FCAMR | inactive: 0.137 |
| AGAGAUCUGCUAACUCAAATT against SST | inactive: -0.043 |
| GCUCAGCAUUGUCUGCAAATT against RNASE6 | inactive: 0.832 |
| CAACUAUCUAAGAAGUAAATT against FLT3 | inactive: 0.418 |
| CCAACAUCCUGUGAAUUUUTT against TESSP2 | inactive: 0.419 |
| CGAACAGACGGUGCCCUAUTT against EDN3 | inactive: -0.427 |
| GGUGGUCUCCUUACAAUGATT against STK31 | inactive: 0.699 |
| GCAAGGAUCAGUUUCCGGATT against RHOC | inactive: -0.579 |
| GGAACUUGCUUACAACCAATT against FPGT | inactive: 0.36 |
| CGUUCUCUGUGAGAUCAUUTT against LIMK2 | inactive: -0.0288 |
| CUGAUGACCUUUUCCAGUATT against JMJD6 | inactive: 0.314 |
| CGAGUAGAGCUGAUACCAATT against PTPN14 | inactive: 0 |

Taken from above:
Entry of GACAGAUUGUUAUAUACGATT against DYNC1I2 under median seed-adjusted z-score: inactive: -0.167
Entry of CGAGUAGAGCUGAUACCAATT against PTPN14 under median seed-adjusted z-score: inactive: 0

Further results:

| Sequence | median seed-adjusted z-score |
| --- | --- |
| CACACUCCCAAAGACGAUGTT against FAHD2B | inactive: 0.154 |
| GGAACAUUCCUGUGCAACATT against MTMR3 | inactive: 0.281 |
| GCAAAUGUCUUGGACAGAUTT against CHRNA7 | inactive: -0.485 |
| CGGAGAUACUGACAGAUGATT against ATP5G2 | inactive: 0 |
| GAAGGACUGAUAAAACGAUTT against GANC | inactive: 0.799 |
| CCUGCAGACUUGGAAGUCATT against RSAD1 | inactive: -0.269 |
| GGAUCGGGUGUAUCAACAATT against SRP54 | inactive: 0.203 |
| GCCUCCACGGAAGAUGUAATT against ZNF746 | inactive: 0.1 |
| AUAUGAGUGAGAAAGCUUATT against ZNF16 | inactive: 0 |
| GCUUAGAUCCUGCAGCUAUTT against POLR3A | inactive: 0.395 |
| CCUCAUGCCUUAAUGAUCATT against ZNF561 | inactive: -0.00904 |
| CGGCUGGUCUUUUUACUUUTT against CACNG4 | inactive: -0.0702 |
| GGACAAAGUCCUAAAGAAATT against MGC21874 | inactive: -0.354 |
| GGAAAAUCAUUUCAUCGAATT against ZNF418 | inactive: 0.804 |
| GAACAACGGCUGAAGUUGATT against CADPS | inactive: 0.551 |
| GCUGGUCCAGUGGAUCUAATT against MSTN | inactive: -0.639 |
| GUUCCUUGUUUAUGAGAAATT against SLC25A17 | inactive: 0.0311 |
| CCUCAACAAGUGAACUUUATT against GMDS | inactive: 0 |
| AGAACCUCCUCUACCUGUATT against DNAL4 | inactive: 0 |
| GGGAUGAUAUGAAAGGAGATT against FYN | inactive: -0.0476 |
| GAAGAUCAAGAAUAAGAUUTT against CREB3L2 | inactive: -0.192 |
| GGAGAAGCUCUAUACGAAATT against DNAJC5B | inactive: 0 |

A different layout for part of the listing above:
Sequence,median seed-adjusted z-score
GCAAAUGUCUUGGACAGAUTT against CHRNA7,inactive: -0.485
CGGAGAUACUGACAGAUGATT against ATP5G2,inactive: 0
GAAGGACUGAUAAAACGAUTT against GANC,inactive: 0.799
CCUGCAGACUUGGAAGUCATT against RSAD1,inactive: -0.269
GGAUCGGGUGUAUCAACAATT against SRP54,inactive: 0.203

The list continues:

| Sequence | median seed-adjusted z-score |
| --- | --- |
| CACUCUUCCUUGUACAUAATT against ZNF37A | inactive: -0.0585 |
| CGACUUCACCAACCACAAUTT against PPIF | inactive: 0.0719 |
| GAGCUGCAGUAAUUGUGGATT against ZFYVE27 | inactive: 0.0439 |
| GACUGUCUUUGAAAAGAGATT against HESX1 | inactive: 0.3 |
| AGGACAAAUUAUGAAAACATT against UBE2V2 | inactive: 0.556 |
| CACCACCAUUCAUACCUCATT against RBMS2 | inactive: -0.918 |
| CGUCGAUUCCCAGAUCUUATT against MSH2 | inactive: 0 |
| ACACCUUUGAUAAGAAUUATT against RAB34 | inactive: 0.342 |
| UGGCCUUCGUCAACAGCUGTT against GPR25 | inactive: 0.377 |
| CAAACUCCCGGAUCAUAGATT against CYP27A1 | inactive: -0.391 |
| CUCAAUUACUUCCACCUAATT against FOXR1 | inactive: -0.153 |
| CCAAUGACAAAAUCCGUGATT against APOB | inactive: -0.0862 |
| GGAUCUAUAGUGAUUGUCATT against TFRC | inactive: 0.019 |
| AGGGAAUCCUGAGCAGACATT against VTN | inactive: -0.435 |
| UCAACUGCCCAUACACUUATT against LOC647743 | inactive: -0.203 |
| GAAACUACCCAAAGUCGUATT against SCARF2 | inactive: 0 |
| CCAAGUACCCGUUACUCAUTT against ARHGEF2 | inactive: 0.0929 |
| GGAACAGCUUAAGAUUGAATT against GNG3 | inactive: -0.186 |
| GGAUUUGCCUUACCACUAATT against PPP2R5C | active: 1.14 |
| GGGAGCAAAUGUUAACGCATT against ANK2 | inactive: 0 |
